Test results taken from PMC3530481.

Key:
[1] = target: T1, recombinant human WARP (von Willebrand factor A-domain related protein), dimer (human) (UniProt Q6PCB0); test: ELISA; reciprocal solid-phase binding: recombinant WARP fractions (dimer, mix, multimer) coated at 5 ug/ml in TBS, collagen VI tetramers 1-30 ug/ml in TBS, detected with rabbit anti-collagen VI (Ab 7821); both purified
T1 sequence: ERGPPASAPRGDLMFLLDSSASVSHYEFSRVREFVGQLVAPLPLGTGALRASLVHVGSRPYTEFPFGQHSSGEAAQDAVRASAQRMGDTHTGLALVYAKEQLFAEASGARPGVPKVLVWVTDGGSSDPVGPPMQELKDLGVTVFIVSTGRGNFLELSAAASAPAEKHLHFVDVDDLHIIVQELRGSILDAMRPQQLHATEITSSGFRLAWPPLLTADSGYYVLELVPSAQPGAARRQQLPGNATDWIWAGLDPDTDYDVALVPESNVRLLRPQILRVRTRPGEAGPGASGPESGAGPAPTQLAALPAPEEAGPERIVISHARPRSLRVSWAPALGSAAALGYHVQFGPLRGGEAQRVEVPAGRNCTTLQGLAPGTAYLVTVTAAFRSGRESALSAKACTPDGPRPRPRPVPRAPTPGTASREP

[2] = target: T2, recombinant human WARP, multimer (human) (UniProt Q6PCB0); test: as above
T2 sequence: T1 sequence

collagen VI tetramers from bovine cornea (complex)
binding [1]: binds
binding [2]: no binding (tested: 30 µg/ml)

Results are given in words; binding and its absence hold for the method and conditions named. For some assays here: A result given as binding can be weak or reduced; the word gives no strength.
